Measured values as given in publication PMC10372682.
Results are given in words; binding and its absence hold for the method and conditions named. Binding seen in cells or lysates may run through a third protein.

Legend:
[1] = molecular target: T1, PTPMT1 (as used in the coimmunoprecipitation with NERCLIN) (UniProt Q8WUK0); test: co-IP; coimmunoprecipitation of NERCLIN and PTPMT1, in both directions (SI Appendix, Fig. S4A)
T1 sequence: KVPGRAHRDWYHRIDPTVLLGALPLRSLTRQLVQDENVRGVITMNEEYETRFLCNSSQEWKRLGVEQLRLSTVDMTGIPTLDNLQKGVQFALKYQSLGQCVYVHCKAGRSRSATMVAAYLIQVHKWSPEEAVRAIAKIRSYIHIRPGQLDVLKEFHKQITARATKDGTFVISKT

[2] = molecular target: NERCLIN (as used in the coimmunoprecipitation with PTPMT1) (human); test: as above

Row | binding [1] | binding [2] | Molecule
1 | no binding | – | NERCLIN (as used in the coimmunoprecipitation with PTPMT1) (human)
2 | – | no binding | PTPMT1 (as used in the coimmunoprecipitation with NERCLIN) (protein, UniProt Q8WUK0 28-201) KVPGRAHRDWYHRIDPTVLLGALPLRSLTRQLVQDENVRGVITMNEEYETRFLCNSSQEWKRLGVEQLRLSTVDMTGIPTLDNLQKGVQFALKYQSLGQCVYVHCKAGRSRSATMVAAYLIQVHKWSPEEAVRAIAKIRSYIHIRPGQLDVLKEFHKQITARATKDGTFVISKT
